Results deposited as PubChem BioAssay AID1159584 (Peter MacCallum Cancer Centre, 2016).
Aim: 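Genes whose loss is lethal only together with E-cadherin loss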 (primary screen). System: human MCF10A breast epithelial cells, parental and CDH1-null. Reagent: siRNA against human genes. Detection: 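ATP luminescence (CellTiter-Glo) viability per line relative to mean mock wells over all plates, and the ratio of CDH1-null to parental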. Scale: CDH1-null / parental viability ratio: higher = CDH1-null cells survive relatively better than parental; CDH1-null viability vs mock: higher = more viable CDH1-null cells; parental viability vs mock: higher = more viable parental cells.
This is one part, drawn at random, of about 18,000 reagents. Not stated in the record: the amount of reagent, the time to read-out.

The opening 10 entries as a preview:
gene knocked down | CDH1-null / parental viability ratio | CDH1-null viability vs mock (fraction of mock) | parental viability vs mock (fraction of mock)
IGF2 | 0.93 | 0.76 | 0.82
DTNB | 1.28 | 1 | 0.78
POFUT3 | 1.13 | 0.54 | 0.48
SSPOP | 1.09 | 1.05 | 0.96
STX4 | 1.22 | 0.73 | 0.6
NRXN2 | 1.04 | 0.57 | 0.55
PDCL3 | 1.17 | 1.17 | 1
IKBKB | 0.81 | 0.84 | 1.04
LSM8 | 1.33 | 0.6 | 0.45
MEN1 | 1 | 0.79 | 0.79

Main list, from the start:
gene knocked down | CDH1-null / parental viability ratio | CDH1-null viability vs mock (fraction of mock) | parental viability vs mock (fraction of mock)
IGF2 | 0.93 | 0.76 | 0.82
DTNB | 1.28 | 1 | 0.78
POFUT3 | 1.13 | 0.54 | 0.48
SSPOP | 1.09 | 1.05 | 0.96
STX4 | 1.22 | 0.73 | 0.6
NRXN2 | 1.04 | 0.57 | 0.55
PDCL3 | 1.17 | 1.17 | 1
IKBKB | 0.81 | 0.84 | 1.04
LSM8 | 1.33 | 0.6 | 0.45
MEN1 | 1 | 0.79 | 0.79
CHI3L2 | 1.07 | 0.92 | 0.86
ESPN | 1.21 | 1.05 | 0.87
HHIPL2 | 0.8 | 0.86 | 1.08
SEL1L3 | 0.87 | 0.78 | 0.9
ARHGEF7 | 0.81 | 0.63 | 0.78
RFTN2 | 1.05 | 1 | 0.95
CHGA | 0.76 | 0.65 | 0.85
TNIK | 0.93 | 0.86 | 0.92
EGFLAM | 1.07 | 0.88 | 0.82
ARFRP1 | 1.09 | 0.63 | 0.58
TMEM82 | 1.04 | 0.49 | 0.47
KCNA10 | 1.12 | 1.06 | 0.95
SNAPC3 | 1.07 | 1.03 | 0.96
TCF12 | 0.9 | 0.74 | 0.82
BTG1 | 1.17 | 0.82 | 0.7
ABHD12B | 1.24 | 1.02 | 0.82
VAV2 | 0.94 | 0.76 | 0.81
MED23 | 0.98 | 0.88 | 0.9
AIM2 | 1.22 | 1.1 | 0.9
SPACA5 | 1.06 | 0.83 | 0.78
SPINK1 | 1.03 | 1.19 | 1.15
AUH | 1.17 | 1.08 | 0.92
ASB10 | 1.04 | 1.04 | 1
LAMB1 | 1.07 | 0.86 | 0.8
TLX2 | 0.96 | 0.8 | 0.83
TMEM119 | 1.07 | 0.79 | 0.74
USP13 | 0.91 | 0.42 | 0.46
GATM | 1.07 | 0.62 | 0.58
XPO5 | 1.14 | 1.23 | 1.08
PAX3 | 1.17 | 1.08 | 0.92
BCO2 | 0.85 | 0.94 | 1.1
TSPAN10 | 0.99 | 0.86 | 0.87
LIN37 | 0.85 | 0.82 | 0.97
AK1 | 0.86 | 0.62 | 0.72
FAM221A | 0.89 | 0.73 | 0.82
CMC2 | 0.85 | 0.44 | 0.52
CAMSAP3 | 1.18 | 0.77 | 0.65
DDO | 0.93 | 0.78 | 0.84
IL36A | 0.87 | 0.82 | 0.94
ST6GALNAC1 | 1.55 | 0.96 | 0.62
PCDHGB5 | 1.07 | 0.88 | 0.82
PLEK2 | 1.26 | 0.78 | 0.62
GDAP1L1 | 1.16 | 0.86 | 0.74
MAGEA10 | 1.21 | 0.94 | 0.78
H3-3B | 1.04 | 0.94 | 0.9
RIPOR3 | 0.86 | 0.8 | 0.93
ATP5F1C | 0.97 | 0.76 | 0.78
KSR1 | 1.12 | 0.92 | 0.82
ZNF638 | 0.86 | 0.71 | 0.83
ZFP30 | 1.21 | 1.17 | 0.97
SERTAD1 | 0.85 | 0.55 | 0.65
DELE1 | 1.12 | 0.96 | 0.86
PLCXD3 | 0.92 | 0.74 | 0.8
SIDT1 | 1.11 | 0.73 | 0.66
GPATCH11 | 1.11 | 0.82 | 0.74
PML | 0.94 | 0.67 | 0.71
NGRN | 0.69 | 0.73 | 1.06
HEPACAM2 | 0.98 | 0.96 | 0.98
CIB1 | 0.79 | 0.55 | 0.7
PTBP1 | 1 | 0.72 | 0.72
KIF15 | 1.04 | 0.73 | 0.7
H1-1 | 0.91 | 0.48 | 0.53
PLA2G5 | 0.99 | 0.97 | 0.98
SPINDOC | 0.93 | 0.76 | 0.82
ADAMTS15 | 1.17 | 0.94 | 0.8
SDK2 | 1.34 | 1.02 | 0.76
SLITRK4 | 1.32 | 0.96 | 0.73
VCAM1 | 1.13 | 1.08 | 0.96
DEFB113 | 0.69 | 0.44 | 0.64
IFI27L1 | 0.87 | 0.71 | 0.82
UTS2 | 1.02 | 0.82 | 0.8
FOXJ1 | 0.94 | 0.84 | 0.89
FAM9C | 1.01 | 0.86 | 0.85
RGL2 | 1.15 | 0.82 | 0.71
KLF3 | 0.84 | 0.68 | 0.81
OR51A2 | 1.12 | 0.76 | 0.68
INTS5 | 1.17 | 0.94 | 0.8
